Binding data for one substance are collected here from PMC3712580.

By UniProt entry, the sequences of proteins in these tests, tags left out.
UniProt Q04206: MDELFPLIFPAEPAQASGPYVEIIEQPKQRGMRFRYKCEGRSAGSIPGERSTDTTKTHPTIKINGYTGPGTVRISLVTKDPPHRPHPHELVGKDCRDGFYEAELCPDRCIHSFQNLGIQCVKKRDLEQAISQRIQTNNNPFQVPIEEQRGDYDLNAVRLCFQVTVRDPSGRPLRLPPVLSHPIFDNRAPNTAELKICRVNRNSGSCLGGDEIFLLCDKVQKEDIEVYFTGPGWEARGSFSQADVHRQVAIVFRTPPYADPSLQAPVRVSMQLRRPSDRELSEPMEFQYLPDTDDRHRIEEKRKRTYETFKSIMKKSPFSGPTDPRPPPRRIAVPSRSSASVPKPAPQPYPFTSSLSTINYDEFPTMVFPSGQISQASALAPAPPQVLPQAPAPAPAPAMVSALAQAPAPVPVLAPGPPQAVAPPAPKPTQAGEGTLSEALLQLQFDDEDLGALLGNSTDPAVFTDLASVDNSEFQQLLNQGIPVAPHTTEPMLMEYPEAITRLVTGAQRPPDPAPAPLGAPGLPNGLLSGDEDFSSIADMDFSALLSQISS
UniProt O43707: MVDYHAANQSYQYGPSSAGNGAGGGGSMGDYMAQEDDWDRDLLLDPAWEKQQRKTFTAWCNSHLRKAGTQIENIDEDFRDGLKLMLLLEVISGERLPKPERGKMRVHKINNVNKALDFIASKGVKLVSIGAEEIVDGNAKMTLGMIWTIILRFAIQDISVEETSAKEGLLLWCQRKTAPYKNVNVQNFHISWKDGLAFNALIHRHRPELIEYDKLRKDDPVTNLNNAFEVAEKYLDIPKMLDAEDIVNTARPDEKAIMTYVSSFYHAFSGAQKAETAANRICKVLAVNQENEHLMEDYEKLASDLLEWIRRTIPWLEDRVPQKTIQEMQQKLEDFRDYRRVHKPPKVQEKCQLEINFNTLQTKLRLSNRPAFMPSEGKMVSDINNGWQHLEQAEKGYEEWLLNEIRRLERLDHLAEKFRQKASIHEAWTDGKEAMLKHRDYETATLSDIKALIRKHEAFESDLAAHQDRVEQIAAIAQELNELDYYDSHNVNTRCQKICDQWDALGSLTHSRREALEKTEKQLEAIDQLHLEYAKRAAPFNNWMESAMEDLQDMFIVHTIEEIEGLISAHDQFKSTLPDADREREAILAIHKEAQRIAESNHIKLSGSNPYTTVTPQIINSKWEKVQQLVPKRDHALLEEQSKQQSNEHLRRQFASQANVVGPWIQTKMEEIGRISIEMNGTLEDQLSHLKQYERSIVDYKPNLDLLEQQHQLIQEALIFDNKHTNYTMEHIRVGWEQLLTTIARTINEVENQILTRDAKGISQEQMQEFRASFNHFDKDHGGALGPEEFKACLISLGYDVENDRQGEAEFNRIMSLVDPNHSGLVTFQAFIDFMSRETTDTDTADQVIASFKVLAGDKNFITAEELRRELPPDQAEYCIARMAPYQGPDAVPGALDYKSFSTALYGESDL

Results are given in words; binding and its absence hold for the method and conditions named. Binding seen in cells or lysates may run through a third protein. Some binding calls cover weakened binding; strength is not graded here.

For the assay, the target named is RelA/p65 subunit of the nuclear factor-kB (NF-kB) (human (endogenous in HEK293T)) (UniProt Q04206). Description: co-IP; RelA/p65 immunoprecipitated with agarose-conjugated anti-RelA/p65 antibody (sc-8008 AC) from precleared cytoplasm extracts of HEK293T cells expressing MYC-ACTN4Fl, overnight incubation; immunoblotting with anti-MYC and anti-RelA/p65.

On to “Alpha-actinin 4 (ACTN4), full-length, with MYC-tag at the N-terminus (from UniProt O43707 1-911)”, for which the binding entry is reported as “binds”.
